Converted amounts (≈) assume the structure as drawn.
Columns and labels:
Staphylococcus aureus [1] = assay: Antimicrobial activity against Staphylococcus aureus after 18 hrs by microdilution method; type: functional
Staphylococcus aureus [2] = assay: Antimicrobial activity against methicillin-resistant Staphylococcus aureus after 18 hrs by microdilution method; type: functional

O=C(O)c1cn(C2CC2)c2cc(N3CCNCC3)c(F)cc2c1=O [CIPROFLOXACIN]
MIC (Staphylococcus aureus [1]): 0.4 µg/mL (≈ 1.21 µM)
MIC (Staphylococcus aureus [2]): 12.5 µg/mL (≈ 37.7 µM)

From ChEMBL document CHEMBL3351437, “Ralfuranone Is Produced by an Alternative Aryl-Substituted γ-Lactone Biosynthetic Route in Ralstonia solanacearum” (2014)
